Data taken from publication PMC7471661.
These are yes or no findings as the source states them, for the method shown. Binding seen in cells or lysates may run through a third protein. Some entries that bind do so weakly or less than the wild type.

Amino acid sequences for entries named in this document (tags omitted).
UniProt P49841: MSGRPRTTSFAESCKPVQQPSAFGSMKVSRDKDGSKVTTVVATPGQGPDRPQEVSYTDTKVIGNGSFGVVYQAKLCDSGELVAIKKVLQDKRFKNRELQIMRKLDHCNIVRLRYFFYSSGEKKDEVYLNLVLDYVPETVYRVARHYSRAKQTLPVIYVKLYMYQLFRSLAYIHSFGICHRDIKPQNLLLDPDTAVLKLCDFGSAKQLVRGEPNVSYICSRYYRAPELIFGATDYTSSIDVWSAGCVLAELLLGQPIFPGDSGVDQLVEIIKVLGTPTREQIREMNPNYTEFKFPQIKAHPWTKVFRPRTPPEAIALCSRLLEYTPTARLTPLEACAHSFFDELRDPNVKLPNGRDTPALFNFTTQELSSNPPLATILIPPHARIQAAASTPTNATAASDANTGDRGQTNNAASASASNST

Target: T1, peroxisome proliferator-activated receptor coactivator (PGC1α) (human (endogenous in H1299)) (UniProt Q9UBK2)
T1 sequence: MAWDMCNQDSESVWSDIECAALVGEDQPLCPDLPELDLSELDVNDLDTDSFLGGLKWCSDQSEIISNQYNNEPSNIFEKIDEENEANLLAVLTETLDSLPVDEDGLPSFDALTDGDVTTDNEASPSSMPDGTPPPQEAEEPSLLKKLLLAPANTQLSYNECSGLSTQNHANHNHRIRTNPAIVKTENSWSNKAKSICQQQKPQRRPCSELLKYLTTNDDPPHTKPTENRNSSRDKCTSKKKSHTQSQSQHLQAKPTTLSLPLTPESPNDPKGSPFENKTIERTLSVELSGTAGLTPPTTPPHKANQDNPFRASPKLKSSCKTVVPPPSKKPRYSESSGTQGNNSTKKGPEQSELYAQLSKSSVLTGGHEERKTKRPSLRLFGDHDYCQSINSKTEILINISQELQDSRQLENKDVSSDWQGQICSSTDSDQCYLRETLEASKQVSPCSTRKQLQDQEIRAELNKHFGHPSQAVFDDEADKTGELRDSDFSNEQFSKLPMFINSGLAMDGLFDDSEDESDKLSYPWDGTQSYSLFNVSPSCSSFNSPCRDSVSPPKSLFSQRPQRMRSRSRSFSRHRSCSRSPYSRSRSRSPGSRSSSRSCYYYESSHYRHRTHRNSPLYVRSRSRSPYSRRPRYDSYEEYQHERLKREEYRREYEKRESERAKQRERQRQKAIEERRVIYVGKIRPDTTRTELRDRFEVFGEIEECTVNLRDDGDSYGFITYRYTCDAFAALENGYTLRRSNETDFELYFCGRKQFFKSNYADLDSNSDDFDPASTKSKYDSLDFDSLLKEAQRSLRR
Experiment: co-IP; H1299 cells transfected with p53 or empty vector for 48 h, with or without GSK-3β inhibitor CHIR99021 (5 μM); NP40 lysis buffer; immunoprecipitation with anti-PGC1α antibody overnight at 4°C, protein A/G agarose beads; blot with anti-GSK-3β and anti-PGC1α

binding: binds
Substance: glycogen synthase kinase (GSK-3β) (from UniProt P49841 1-420) (enzyme)
